Measurements taken from PubChem BioAssay AID588463 (National Center for Advancing Translational Sciences (NCATS), 2011).
Among all 1,200 compounds or so, about 15 (1%) were called active. Not shown: some 7% with an inconclusive outcome. Calls come from the whole dose curve; as a rule, active = well fitted activation curve with a large enough effect; inconclusive = small, poorly fitted or top-dose-only effect; inactive = flat fitted curve, though single readings scatter. This is one part of the list.

target: Beta-2 adrenergic receptor (Homo sapiens) (UniProt P07550); assay: qHTS assay of beta-arrestin-biased ligands of beta2-adrenergic receptor: Hit Validation; conditions: cell-based beta-arrestin recruitment to beta2AR; Potency: activation; series mostly up to 46.1 µM; activation: at the top concentration;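 note: plate controls were DMSO for no effect and maximal isoproterenol or metaproterenol response for full effect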
Outline: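 Tango beta-arrestin recruitment assay in cells at 1500 cells/well in 1% FBS medium, 18 h compound exposure at 37 °C. Luciferase luminescence read 15 min after substrate addition; %activity curves classified by curve class.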

activation, inactive:
CCOC(=O)c1sc(NC(=O)CSc2nnc(C(C)C)n2C)nc1C -3.85%
CC(=Nc1ccccc1O)c1sc2ccccc2c1O -3.52%
Cc1ccc2c(c1)C1CN(C)CCC1N2C(=O)c1ccccc1NS(=O)(=O)c1ccc(F)cc1C (stereo unspecified) -2.77%
COc1ccc(C[C@@H]2CN3C(=NC[C@@H]3Cc3ccc(O)cc3)N2C[C@H](C)NC(=O)CCC2CCCCC2)cc1 1.59%
CC1=NN(C(N)=S)C(=O)C1N=Nc1c(C)cc(C)cc1C (stereo unspecified) -2.37%
C=C(C)CNC(=S)NNC(=O)c1ccco1 -0.272%
CCn1c(SCC(=O)c2ccc(F)cc2)nnc1-c1ccoc1C -2.69%
COC(=O)N1C(=O)[C@@](c2ccccc2)(C2CCCCC2)N1C(=O)OC -0.705%
C/C(=N\NC(=O)c1ccccc1[N+](=O)[O-])c1c(O)cc(C)oc1=O -2.83%
Cc1ccc([N+](=O)[O-])cc1N=Nc1c(-c2ccc([N+](=O)[O-])cc2)[nH]n(C(N)=S)c1=O -2.19%
CC(/C=C/c1ccccc1)=N\NC(N)=S -0.909%
CNc1nc(-c2ccc3c(c2)CCN3C(=O)c2cccc(F)c2)cs1 -3.05%
C=CCn1c(-c2ccccc2)c[nH]c1=S -5.21%
CCOC(=O)C1=CN(Cc2cccc(-c3cccnc3)c2)S(=O)(=O)N(CC)C1C (stereo unspecified) -2.1%
CC(C)(C)NC(=S)NCc1ccc2c(c1)OCO2 -2.18%
C=CCNC(=S)N/N=C/c1cn(C)c2ccccc12 -0.545%
COc1ccccc1N1CCN(C(=O)c2cc3ccccc3[nH]2)CC1 -2.66%
O=C(O)CC1S/C(=N/N=C2CCCCC2)N(c2ccccc2)C1=O (stereo unspecified) -2.11%
N#CC1=C(N)SC(C(=O)c2ccccc2)C1c1cccs1 (stereo unspecified) -2.87%
CCCOc1ccc(C(=O)Nc2nc(C)c(Cc3ccc4c(c3)OCO4)s2)cc1 -4.09%
COc1ccc(CNc2nc(SCC(=O)NCc3ccco3)nc3ccccc23)cc1 -0.667%
CCOCCCNC(C(=O)Nc1ccc(OC)c(Cl)c1)c1ccccc1 (stereo unspecified) -3.37%
COC(=O)CSc1ccc2nnc(-c3ccc(OC)c(OC)c3)n2n1 -2.65%
CCOc1cc(/C=N\Nc2nc(-c3ccc(C)cc3)c(NC(C)=O)s2)ccc1O -4.03%
COCC(=O)Nc1cc(C(=O)NCCc2ccccc2)ccc1Cl -3.24%
OCc1ccnc2c(O)cccc12 -1.34%
CN(C)S(=O)(=O)c1cccc(NC(=S)N/N=C/c2ccco2)c1 2.56%
Cc1ccc2nc(Cl)c(C3CC(c4cccs4)=NN3C(=O)CCCC(=O)O)cc2c1 (stereo unspecified) -2.53%
Cc1cc(N2CCCC2)ccc1/C=C1\NC(=S)N(C)C1=O 0.246%
C/C(=N\NC(=O)c1ccco1)c1ccc(NC(=O)C(F)(F)F)cc1 -3.65%
CNC(=S)N/N=C(\C)c1ccccc1 -1.21%
O=C1CCCC(=O)N1c1ccc(N2CCN(c3ccccc3)CC2)c([N+](=O)[O-])c1 -2.26%
CCOc1ccc(NC(=S)NC(=O)C2CCCC2)cc1 -2.21%
COc1ccc2c(c1)c(=O)c(C(=O)c1ccccc1)cn2Cc1ccccc1 -1.85%
COc1ccc(C)cc1-n1nnnc1SCC(=O)N1CCC(C(=O)Nc2nccs2)CC1 -3.38%
Cc1ccc(C(C[N+](=O)[O-])Sc2ccc(N)cc2)cc1 (stereo unspecified) -3.27%
COc1ccc(/C=N/Nc2nnc(Cc3ccc(OC)c(OC)c3)c(=O)[nH]2)cc1 -2.15%
CC1=C/C(=N\NC(=S)NCc2ccccc2)CC1 -4.13%
O=C(NC(=S)N1CCCCCC1)c1ccccc1Cl -2.85%
NC(=S)N=Nc1c(O)n(CCCl)c2ccc(Cl)cc12 -3.45%
Cc1ccc(/C=C/C(=O)N2CCN(c3ncccn3)CC2)o1 -1.3%
CCCCCCCCN1C(=O)N(C)C(N(O)C(=O)NC)C1(C)C (stereo unspecified) -3.26%
CCCNC(C)C(=O)Nc1ccccc1C (stereo unspecified) -0.511%
CC1=NN(C(N)=S)C(=O)C1N=Nc1cccc(Cl)c1 (stereo unspecified) -2.92%
CCOC(=O)/C(C#N)=C/Nc1ccsc1C(=O)OC -3.19%
Nc1ncc(-c2ccccc2)n1CC1CCCO1 (stereo unspecified) -1.47%
CN(C)c1ccc(NC(=S)c2ccc3ccccc3n2)cc1 -2.5%
COc1ccccc1CN1C[C@@H]2C[C@@H](c3ccc4nsnc4c3)N3CCC[C@@]23C1=O -1.58%
CN(C)C=Nc1nonc1-c1ccc(Cl)cc1 -4.78%
CCc1cc(=O)oc2cc3occ(C)c3cc12 -1.07%
CN(C)/C=C/C(=O)c1ccc(Oc2ncccn2)cc1 -1.47%
COc1ccc(-c2cn3cccnc3n2)cc1F -3.26%
O=C(Nc1nc(-c2ccccn2)cs1)Nc1ccc(F)cc1F 0.564%
CCCCc1nnc(NC(=O)c2ccccc2OCc2c(C)noc2C)s1 -1.03%
C=CCn1nc([N+](=O)[O-])nc1Sc1cccc2cccnc12 -2.64%
Fc1ccccc1/C=N/n1cc(-c2ccccc2)[nH]c1=S -0.859%
COc1cc(/C=C2\SC(=N)N(c3ccc4c(c3)OCO4)C2=O)cc(OC)c1O -0.457%
Cc1nc2ccc(NC(=O)CS(=O)(=O)c3ccc(F)cc3)cc2s1 -1.23%
Cc1cccc(N(C(=O)CNC(=O)c2cccs2)C(C(=O)NC2CCCC2)c2ccncc2)c1 (stereo unspecified) 5.2%
Cc1ccc(C)c(OCC(=O)NCC(C)C)c1C -3.09%
Cc1ccccc1NC(=S)Nc1ccccn1 -0.855%
N#C/C(=C\c1c(Cl)cccc1Cl)c1nc2ccccc2o1 -1.61%
COCCCN=C1NN=C(c2cc(C)n(-c3ccccc3)c2C)CS1 -1.56%
O=C(OCC1CC(c2ccccc2)=NO1)c1ccco1 (stereo unspecified) 0.568%
CCOC(=O)c1c(-c2ccco2)csc1NC(=O)COC(=O)c1cnccn1 -2.12%
COc1cc2c(cc1OC)C(c1cc3ccccc3oc1=O)=NC(C)(C)C2 -4.34%
CCn1nnnc1SCC(=O)Nc1nc2ccc(OC)cc2s1 -0.634%
CCN(CC)S(=O)(=O)c1ccc(N=Nc2c(C)[nH]n(C(N)=S)c2=O)cc1 -2.88%
Cc1cccc2c1c1ccc3c(c1n2C)C(=O)C=CC3=O -2.88%
C[C@H](CO)N1C[C@H](C)[C@@H](CN(C)Cc2ccc(-c3ccccc3)cc2)Oc2c(NC(=O)Cc3ccccc3)cccc2C1=O 4.09%
Cn1c(=S)[nH]c2c(c1=O)C(C)(C)Cc1ccccc1-2 -4.04%
O=C1NC(c2ccc(-c3ccccc3[N+](=O)[O-])o2)C(C(=O)c2ccc(F)cc2)C(O)(C(F)(F)F)N1 (stereo unspecified) -4.07%
C=CCNC(=S)N/N=C/c1ccc(C(F)(F)F)cc1 -2.41%
C=CCNC(=S)N/N=C/c1ccc(-c2cc(Cl)ccc2Cl)o1 -2.16%
COc1ccccc1/C=N/NC(=S)Nc1cccnc1 -1.07%
COc1cc(OC)c(C2Nc3cccc4cccc(c34)N2)c(OC)c1 -5.32%
COC(=O)NNC(=O)COc1ccc2ccccc2c1Br -0.79%
C/C(=N/NC(N)=S)c1ccc(Br)s1 0.669%
Cc1onc(-c2ccccc2)c1C(=O)N/N=C/C(Br)=C/c1ccccc1 -2.07%
O=C(Cc1cccs1)N/N=C/C=C/c1ccco1 -1.18%
COc1ccc(CCNc2nc(-c3ccccn3)cs2)cc1OC 3.08%
CCCCCCC[C@@H](C/C=C/CCC(=O)N(C)C/C(=C/Cl)C/C(=C\C(=O)N1CC(OC)=CC1=O)OC)OC -2.85%
O=C1c2ccccc2CN1c1ccccc1 -3.12%
C=CCNC(=S)NNc1ncnc2sc3c(c12)CC(C)(C)OC3 -4.28%
CCCCC(=O)/C=C/n1c(=S)oc2ccccc21 -2.45%
COCC(=O)N1CCC(Oc2ccc(C(=O)NCc3cc(C)no3)cc2)CC1 -2.69%
COc1ccc(-c2cc(C(F)(F)F)nc(SCC(=O)NCc3ccco3)n2)cc1OC -1.26%
COc1ccc(NC(=S)Nc2cccc(C)n2)cc1 -2.31%
O=C(Oc1c(CN2CCOCC2)cc(Cl)c2cccnc12)c1ccccc1Cl 0.917%
Cc1cc(/C=C(\C#N)C(=O)NC2CCCCCC2)c(C)[nH]1 -1.99%
CC1CCCC/C1=N\NC(=S)NCCc1ccccc1 (stereo unspecified) -2.85%
O=C1OC(c2ccccc2)=C/C1=C\N1CCOCC1 -2.64%
Fc1ccccc1/C=N/Nc1ncnc2ccccc12 -1.82%
CN(C)c1nc(N/N=C/c2ccccc2O)nc(Nc2ccc(F)cc2)n1 -2.49%
CCc1cc(C(=O)N(CC(C)C)c2c(N)n(Cc3ccccc3)c(=O)[nH]c2=O)sc1C -3.09%
CSC1=C(C#N)C(c2ccccc2Cl)C2=C(N1)c1ccccc1C2=O (stereo unspecified) -2.57%
CN1CCC(C2(O)c3ccccc3CSc3sccc32)CC1 (stereo unspecified) -1.61%
NC(=S)N/N=C/c1ccc(-c2ccc(Cl)c(Cl)c2)o1 -5.57%
S=C(Nc1nc2c(s1)CCCC2)NC1CC1 -1.69%
Oc1ccc(N=Nc2nccs2)c(O)c1 -2.66%
CCC(Sc1nc(C)cc(=O)[nH]1)C(=O)Nc1nc2c(s1)CCCC2 (stereo unspecified) -0.225%
N#C/C(=C\c1cccc(O)c1)c1nc2ccccc2o1 0.103%
CN(C)/C=C1\N=C(c2cccnc2Oc2ccc(Cl)cc2)OC1=O -7.85%
Cc1cc(N)n(Cc2cccs2)n1 -0.484%
C=CCNC(=S)NC(=O)c1ccc(C)c(Br)c1 -1.73%
NC(=S)N/N=C/c1ncc(C(F)(F)F)cc1Cl -2.53%
CCCc1cc(SCC(=O)Nc2c(C)n(C)n(-c3ccccc3)c2=O)n2c(nc3ccccc32)c1C#N 2.95%
COCCNc1c(-c2cc3ccc(C)c(C)c3[nH]c2=O)nc2ccccn12 -2.26%
C/C(CC(C)(C)C1CCCCC1)=N\NC(N)=S -3.33%
Cc1ccc2[nH]c(=S)cc(C)c2c1 -2.35%
CC(C)(C)NNC(=S)Nc1cccc(F)c1 -2.61%
CN(Cc1ccccc1)C(=O)N[C@@H](Cc1ccccc1)C(=O)O -2.37%
O=C(CNc1cccc(Cl)c1)c1ccc(Br)cc1 -2.41%
Cc1ccc(C2(C)NC(=O)N(CC(=O)c3ccc4c(c3)OCCO4)C2=O)cc1 (stereo unspecified) 4.6%
COc1ccc(/C(C)=N/Nc2nc3ccccc3nc2C)cc1OC -2.66%

Among those listed so far, these have a nitro group on carbon.
activation, inactive:
C/C(=N\NC(=O)c1ccccc1[N+](=O)[O-])c1c(O)cc(C)oc1=O -2.83%
Cc1ccc([N+](=O)[O-])cc1N=Nc1c(-c2ccc([N+](=O)[O-])cc2)[nH]n(C(N)=S)c1=O -2.19%
O=C1CCCC(=O)N1c1ccc(N2CCN(c3ccccc3)CC2)c([N+](=O)[O-])c1 -2.26%
Cc1ccc(C(C[N+](=O)[O-])Sc2ccc(N)cc2)cc1 (stereo unspecified) -3.27%
C=CCn1nc([N+](=O)[O-])nc1Sc1cccc2cccnc12 -2.64%
O=C1NC(c2ccc(-c3ccccc3[N+](=O)[O-])o2)C(C(=O)c2ccc(F)cc2)C(O)(C(F)(F)F)N1 (stereo unspecified) -4.07%

Following part.

Potency, inactive:
S=C(Nc1ccccn1)c1ccccn1
